Experimental data reported in the supplement of paper PMC7877785.
± gives the uncertainty stated by the source. Many of these values have a large error.

Experiment: self-splicing fitness, log relative to wild type (ln ratio); higher = more splicing; Tetrahymena group I intron in knt gene, E. coli kanamycin selection, DiMSum; sequences stand for … in CUCUCU…GGAGGGAAAAGUUAUCAGGCAUGCACCUGGUAGCUAGUCUUUAAACCAAUAGAUUGCAUCGGUUUAAAAGGCAAGACCGUCAAAUUGCGGGAAAGGGGUCAACAGCCGUUCAGUACCAAGUCUCAGGGGAAACUUUGAGAUGGCCUUGCAAAGGGUAUGGUAAUAAGCUGACGGACAUGGUCCUAACCACGCAGCCAAGUCCUAAGUCAACAGAUCUUCUGUUGAUAUGGAUGCAGUUCACAGACUAAAUGUCGGUCGGGGAAGAUGUAUUCUUCUCAUAAGAUAUAGUCGGACCUCUCCUUAAUGGGAGCUAGCGGAUGAAGUGAUGCAACACUGGAGCCGCUGGGAACUAAUUUGUAUGCGAAAGUAUAUUGAUUAGUUUUGGAGUACUCGUGGUCG
Summary of the method: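 DiMSum derived fitness as the error-weighted combination of fold changes across replicates, kanamycin versus no kanamycin, normalised to wild type. E. coli BL21(DE3) held the library, which randomised all eight P1ex-region intron nucleotides within the knt kanamycin-resistance gene on pET-22b(+). Six replicate transformations grew overnight at 37°C or 30°C on LB agar with or without 25 μg/mL kanamycin, also containing 100 μg/mL carbenicillin, 50 μM IPTG and 0.2% rhamnose, and pooled colonies were amplicon-sequenced on an Illumina HiSeq 2500.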

Row | Sequence | self-splicing fitness (ln) (30 °C) | self-splicing fitness (ln) (37 °C)
1 | CCUAAGCAAUAUUACGCUCG | -5.11 ± 0.72 | 
2 | CGCGAGCAAUAUUACGCACG | -4.12 ± 0.53 | 
3 | GGGGAGCAAUAUUACGGCUU | -3.73 ± 0.6 | -1.77 ± 0.67
4 | UCGGAGCAAUAUUACGGGAG | -4.05 ± 0.6 | 
5 | AGGCAGCAAUAUUACGAGCC | -2 ± 0.14 | -1.4 ± 0.21
6 | GCGUAGCAAUAUUACGUACC | -2.4 ± 0.65 | -1.21 ± 0.67
7 | CUCAAGCAAUAUUACGCCCG | -0.954 ± 0.17 | -2.11 ± 0.21
8 | CUUGAGCAAUAUUACGCAUA |  | -1.57 ± 0.51
9 | UAUUAGCAAUAUUACGCAAC | -1.55 ± 1.2 | 
10 | AUAUAGCAAUAUUACGGGGC | -3.4 ± 0.43 | -2.48 ± 0.32
11 | CCGGAGCAAUAUUACGCUAC |  | -2.33 ± 0.64
12 | GUUUAGCAAUAUUACGUGGU | -3.77 ± 0.59 | 
13 | UCCUAGCAAUAUUACGCAAG | -2.07 ± 0.66 | -3.09 ± 0.6
14 | CGUUAGCAAUAUUACGGUCU | -1.56 ± 0.18 | -1.22 ± 0.16
15 | CUUCAGCAAUAUUACGCUUC | -3.62 ± 0.52 | -2.73 ± 0.61
16 | CCUUAGCAAUAUUACGACCA |  | -2.35 ± 0.77
17 | CUCGAGCAAUAUUACGGCUA | -2.7 ± 0.51 | 
18 | AACCAGCAAUAUUACGCCGG | -3.39 ± 0.17 | -2.09 ± 0.17
19 | ACCGAGCAAUAUUACGUGCC | -3.24 ± 0.6 | -1.39 ± 0.69
20 | CUGAAGCAAUAUUACGGAGC | -3.95 ± 0.52 | 
21 | UAGGAGCAAUAUUACGAUGU | -3.42 ± 0.73 | 
22 | CGAUAGCAAUAUUACGAAGA | -3.8 ± 1 | 
23 | GUUCAGCAAUAUUACGCCCA | -0.553 ± 0.1 | -1.26 ± 0.1
24 | UAGGAGCAAUAUUACGGUGA | -3.64 ± 0.76 | 
25 | UAUGAGCAAUAUUACGACUU |  | -2.37 ± 0.56

Record cards, from the list above. Order of values: self-splicing fitness (ln) (30 °C) | self-splicing fitness (ln) (37 °C)
AACCAGCAAUAUUACGCCGG is listed as -3.39 ± 0.17 | -2.09 ± 0.17
CGUUAGCAAUAUUACGGUCU is listed as -1.56 ± 0.18 | -1.22 ± 0.16

Next part.

Row | Sequence | self-splicing fitness (ln) (30 °C) | self-splicing fitness (ln) (37 °C)
26 | AUAGAGCAAUAUUACGAGAC | -3.19 ± 1.2 | -1.28 ± 0.57
27 | UAUCAGCAAUAUUACGGGCC | -4.45 ± 0.51 | 
28 | CUACAGCAAUAUUACGUGCU | -4.97 ± 0.58 | 
29 | CCGAAGCAAUAUUACGAAGA |  | -2.87 ± 1
30 | CUAUAGCAAUAUUACGAAGC | -3.98 ± 0.73 | -2.77 ± 0.75
31 | CCGGAGCAAUAUUACGCAUA | -2.87 ± 1.1 | -2.05 ± 0.5
32 | UCUGAGCAAUAUUACGAAAC |  | -2.57 ± 1.1
33 | CCAGAGCAAUAUUACGCGGG |  | -1 ± 0.92
34 | AUUGAGCAAUAUUACGUAUC |  | -2.32 ± 0.78
35 | CCCGAGCAAUAUUACGCCCA | -4.02 ± 0.6 | -3.41 ± 0.52
36 | CAUUAGCAAUAUUACGUAUG | -3.57 ± 0.2 | -2.9 ± 0.3
37 | GCUAAGCAAUAUUACGCUGC |  | -2.14 ± 0.5
38 | GGGUAGCAAUAUUACGGGGC | -2.61 ± 0.54 | -3.07 ± 0.53
39 | UGUGAGCAAUAUUACGAUGC | -3.82 ± 0.77 | 
40 | GUGCAGCAAUAUUACGGAAA | -3.4 ± 0.53 | 
41 | AAUGAGCAAUAUUACGUCCC | -1.69 ± 0.52 | -1.69 ± 1.2
42 | CCAGAGCAAUAUUACGUACA | -4.71 ± 0.58 | 
43 | UUCAAGCAAUAUUACGUCCC |  | -0.234 ± 1
44 | GCUGAGCAAUAUUACGCUCG | -2.7 ± 0.36 | -0.729 ± 0.26
45 | AGUUAGCAAUAUUACGUUGA | -2.03 ± 0.31 | -2.02 ± 0.39
46 | GGAGAGCAAUAUUACGCUAC |  | -3.16 ± 1
47 | ACAUAGCAAUAUUACGGUUC | -2.93 ± 0.17 | -2.51 ± 0.24
48 | CGAGAGCAAUAUUACGACAA |  | -3.17 ± 1
49 | GCCUAGCAAUAUUACGAUAG | -3.27 ± 0.52 | -4.09 ± 0.72
50 | UAUUAGCAAUAUUACGAGAU | -4.42 ± 0.74 | 

Row | Sequence | self-splicing fitness (ln) (30 °C) | self-splicing fitness (ln) (37 °C)
51 | GUGCAGCAAUAUUACGCUUC | -2.46 ± 0.66 | -2 ± 0.5
52 | GGCCAGCAAUAUUACGCGCU | -2.62 ± 0.62 | 
53 | UAGUAGCAAUAUUACGCACC | 0.121 ± 1.1 | 
54 | CUCGAGCAAUAUUACGAGCC | -3.66 ± 0.52 | 
55 | UUUAAGCAAUAUUACGACAC |  | -2.15 ± 0.65
56 | UACUAGCAAUAUUACGACCU | -2.01 ± 0.13 | -0.83 ± 0.15
57 | GCUGAGCAAUAUUACGACAG |  | -1.88 ± 0.67
58 | CUAAAGCAAUAUUACGACAC | -3.21 ± 0.5 | 
59 | UGGGAGCAAUAUUACGAUAA |  | -1.54 ± 1.2
60 | AGAUAGCAAUAUUACGCUGC | -3.75 ± 1 | 
61 | CGUCAGCAAUAUUACGCGUC |  | -2.91 ± 0.62
62 | GUUGAGCAAUAUUACGAGCU | -5.02 ± 1 | -3.09 ± 0.74
63 | UCGCAGCAAUAUUACGACUG | -1.93 ± 0.14 | -2.7 ± 0.25
64 | UCCUAGCAAUAUUACGGCUA | -3.92 ± 0.52 | 
65 | UCAAAGCAAUAUUACGGUCU | -2.68 ± 0.16 | -1.58 ± 0.14
66 | CUGUAGCAAUAUUACGCCAA | -1.54 ± 0.71 | 
67 | CUCGAGCAAUAUUACGAUUC |  | -3.03 ± 0.61
68 | UGUGAGCAAUAUUACGCCUC |  | -0.735 ± 0.61
69 | CCGUAGCAAUAUUACGAAUC | -3.06 ± 0.8 | -0.928 ± 0.61
70 | GCGUAGCAAUAUUACGAGGA |  | -1.94 ± 0.82
71 | UUUUAGCAAUAUUACGUUUC | -3.61 ± 0.53 | -1.98 ± 1.1
72 | CCAGAGCAAUAUUACGGCUC | -2.69 ± 0.23 | -2.76 ± 0.26
73 | UUGUAGCAAUAUUACGCCAU | -3.75 ± 0.75 | -2.33 ± 0.52
74 | AUAGAGCAAUAUUACGAAAU | -0.572 ± 0.1 | 0.0653 ± 0.13
75 | UAAUAGCAAUAUUACGGCUU | -0.901 ± 0.096 | -0.115 ± 0.13

Looked up one by one from the entries so far:
Row | Sequence | self-splicing fitness (ln) (30 °C) | self-splicing fitness (ln) (37 °C)
64 | UCCUAGCAAUAUUACGGCUA | -3.92 ± 0.52 | 
62 | GUUGAGCAAUAUUACGAGCU | -5.02 ± 1 | -3.09 ± 0.74
56 | UACUAGCAAUAUUACGACCU | -2.01 ± 0.13 | -0.83 ± 0.15
